# Screen size: about 320,000 compounds; about 2,100 (0.66%) were called active. This list was built around the results that the source calls inconclusive (neither active nor inactive); the mix of calls is not that of the screen. Calls follow the shape of the dose curve; as a rule, active = well fitted inhibition curve with a large enough effect in the signal ratio, with a control signal flat (not every such curve was filed as active); inconclusive = small, poorly fitted or top-dose-only effect, or effect the other way, or a change in a side signal; inactive = flat fitted curve, though single readings scatter; the % refers to the signal ratio. Potencies beside an inconclusive call are fits to weak or partial responses and may not hold up.
# Test: qHTS Assay for Lipid Storage Modulators in Drosophila S3 Cells
# Conditions: BODIPY lipid droplet fluorescence, 18-24 h, cells fed with added oleic acid; lipid storage change, negative = inhibition: at 46.1 µM (top of the series) unless noted
# How it was run: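 Laser-scanning cytometry quantifies lipid droplet accumulation (500–530 nm total intensity; droplet/cell object ratio) in oleic acid-fed (400 uM added) Drosophila S3 cells treated with a concentration series. 20 uM Triacsin C defined 100% inhibition.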
# % is scaled to controls: 0 for no effect and ±100 for the full control effect; potency is read from the fitted curve at half-maximal effect.
Structure (SMILES),"lipid storage change, negative = inhibition",Potency,outcome
CCOCCCNCc1cccc(OC)c1,inconclusive: -5.04%,–,–
CC(NC(=O)NCCCC(=O)O)(C(F)(F)F)C(F)(F)F,–,active: 29.1 µM,–
CC(C)NC(=O)c1ccccc1NC(=O)CN(c1ccc2c(c1)OCO2)S(C)(=O)=O,–,"inconclusive: 0.58 µM [activator, single point]",–
CC(=O)c1cn(CC(=O)Nc2ccccc2C)c2ccccc12,–,"inconclusive: 29.1 µM [falling, single point]",–
Cc1ccc(CNC(=O)C2CC(=O)N(c3ccc(OCC(=O)N4CCCC4)cc3)C2)cc1 (stereo not drawn),inconclusive: -10.6%,–,–
CCN1CCc2nc(NC(=O)c3ccc4c(c3)OCCO4)sc2C1,inactive: -12.2%,–,–
O=C1CCC(C(=O)Nc2cccc(S(=O)(=O)N3CCOCC3)c2)N1 (stereo not drawn),inconclusive: 42.9%,–,–
CC(C)N(C(=O)CSc1nnc(NC(=O)Cc2cccs2)s1)C(C)C,inconclusive: -68.6%,–,–
Cc1cc(NC(=O)CCCC(=O)NCc2cccs2)no1,inconclusive: 0.261%,–,–
CCOC(=O)C1(Cc2ccccc2C)CCCN(C(=O)c2ccc(OC)o2)C1 (stereo not drawn),inconclusive: 9.09%,–,–
COc1ccccc1N1CCN(S(=O)(=O)c2ccc(Cl)s2)CC1,inconclusive: 34.5%,–,–
CCCCc1cc2ccccc2c(OCCN(C)C)n1,inconclusive: -76.4%,–,–
O=C(NCC(c1ccco1)N1CCCCC1)c1cccc(S(=O)(=O)Nc2ccccc2Cl)c1 (stereo not drawn),inconclusive: 11.8%,–,–
Cc1ccc(OCC(=O)N/N=C2\CC(=O)CC(C)(C)C2)c(Br)c1,–,"inconclusive: 5.8 µM [activator, full curve]",–
N=C1C(=O)OCC1c1ccccc1NC(=O)c1ccccc1 (stereo not drawn),inconclusive: 5.82%,–,–
Cc1nn(CC(=O)O)c2ccccc12,inconclusive: -38.9%,–,–
COc1cccc(N/C=C/C(=O)c2ccc(OC)c(OC)c2)c1,inconclusive: -54.6%,–,–
Nn1c(SCc2ccccn2)nncc1=O,inconclusive: -5.57% [at 9.22 µM],–,–
Nc1nnc2c(n1)CCCC2,inconclusive: 22%,–,–
Cc1noc(C)c1CSc1ncnc2sc3c(c12)CCC3,inconclusive: 14%,–,–
COc1cc(C(=O)N(C)CCOc2ccc(C)cc2)ccc1OC1CCN(C(C)=O)CC1,inconclusive: 100%,–,–
CCN(CC)S(=O)(=O)c1cccc(-c2n[nH]c(=S)n2Cc2ccccc2)c1,inconclusive: 50.8%,–,–
O=C(CCc1nnc(CCC2CCCCC2)o1)NCc1ccon1,inconclusive: -20.2%,–,–
Cc1cccc(-n2c(O)c(C=Nc3ccc4c(c3)OCO4)c3ccccc3c2=O)n1,inconclusive: 134%,–,–
COc1cc(/C=C(\C#N)c2nn(CCO)c(N)c2C#N)cc(OC)c1OC,inconclusive: -3.01%,–,–
Cc1cc(C)n(CC(=O)c2ccc(Cl)cc2)n1,inconclusive: 23.5%,–,–
O=C(CCS(=O)(=O)c1cccs1)Nc1ccc(C(=O)NCc2ccc(F)cc2)cc1,–,"inconclusive: 4.11 µM [falling, single point]",–

Structure (SMILES),"lipid storage change, negative = inhibition",Potency,outcome
C/C(=C\C(=O)c1ccc(C)o1)Nc1ccc2c(c1)OCO2,–,"inconclusive: 0.461 µM [activator, partial curve]",–
COc1ccc(N(C(=O)c2snc(C(N)=O)c2N)C(C(=O)NC2CCCC2)c2cc(OC)ccc2OC)c(OC)c1 (stereo not drawn),–,–,inactive [at 46.1 µM]
Brc1ccc(C2Nc3cccc4cccc(c34)N2)o1,–,"inconclusive: 0.13 µM [activator, full curve, poor fit]",–
CC(C)(C)c1ccc(OCCn2nc(C(=O)O)c3ccccc3c2=O)cc1,inconclusive: 0.961%,–,–
CSc1ccc(CCNC(=O)Cn2ncc3c([nH]c4ccccc43)c2=O)cc1,–,"inconclusive: 13 µM [activator, partial curve]",–
CCSc1nnc(-c2ccccc2N=Cc2c(C)[nH]n(-c3ccccc3)c2=O)c(=O)[nH]1,inconclusive: 5.06%,–,–
COc1cc(OC)c(OC)cc1CN1CCCC(C(=O)N2CCCCC2)C1 (stereo not drawn),inactive: 0.198%,–,–
Cc1ccc(C)c(NC(=O)c2ccc(N(C)S(C)(=O)=O)cc2)c1,–,"inconclusive: 2.31 µM [activator, partial curve]",–
CN(CC(=O)Nc1ccc(F)c(F)c1F)C(=O)C1CC(=O)N(c2ccc3c(c2)OCCO3)C1 (stereo not drawn),inconclusive,–,–
COc1ccc(/C=C/C(=O)N2CCN(c3ccccn3)CC2)cc1OC,–,"inconclusive: 14.6 µM [falling, single point]",–
Cc1cc(C)nc(NS(=O)(=O)c2ccc(NC(=O)C3CC3)cc2)n1,–,"inconclusive: 9.2 µM [activator, partial curve]",–
Fc1ccc(Nc2ncnc3ccccc23)cc1,inconclusive: -3.68%,–,–
COC(=O)c1ccccc1NC(=O)N1CCN(S(=O)(=O)c2ccc(Cl)cc2)CC1,inconclusive: -31.1%,–,–
CCSCc1nnc(SCC(=O)Nc2ccc(OC)cc2)n1C,inconclusive: 14.3%,–,–
COc1ccc(COC(=O)N/C=C/c2ccco2)cc1,inconclusive: 5.78%,–,–
CC(NC(=O)c1ccccc1)c1nc2ccccc2n1Cc1ccccc1F (stereo not drawn),–,"inconclusive: 29.1 µM [falling, single point]",–
CC(=O)c1ccc(NC(=S)NC(C)CCc2ccccc2)cc1 (stereo not drawn),inconclusive: -24.9%,–,–
COc1cc(CN2CCCCCC2)cc(OC)c1,inconclusive: 3.53%,–,–
COc1cccc(S(=O)(=O)N2CCN(c3ccccc3F)CC2)c1,–,"inconclusive: 14.6 µM [activator, partial curve]",–
CN(C)/C=C(/C(=O)c1ccccc1Cl)S(C)(=O)=O,inconclusive: 39.5%,–,–
On1c(-c2ccccc2)nc2ccccc21,–,"inconclusive: 0.13 µM [falling, full curve, poor fit]",–
NC(=O)c1ccc(NC(=O)COC(=O)c2n[nH]c3ccccc23)cc1,inconclusive: 4.17%,–,–
Cc1nc2ccn(Cc3ccccc3)c(=O)c2cc1C(=O)N1CCN(c2ccccc2)CC1,inconclusive: 50.5%,–,–
COc1ccccc1OCCNC(=O)C(c1ccccc1)c1ccccc1,inconclusive: 33.9%,–,–
Cc1cc(Cl)ccc1OCC(=O)NCc1ccncc1,inconclusive: -9.41%,–,–
CC1CCCC(NC(=O)CSc2ncccn2)C1C (stereo not drawn),–,"inconclusive: 0.82 µM [falling, full curve]",–

# Another view of 4 compounds above.
Structure (SMILES)	lipid storage change, negative = inhibition	Potency	outcome
CN(C)/C=C(/C(=O)c1ccccc1Cl)S(C)(=O)=O	inconclusive: 39.5%	–	–
On1c(-c2ccccc2)nc2ccccc21	–	inconclusive: 0.13 µM [falling, full curve, poor fit]	–
NC(=O)c1ccc(NC(=O)COC(=O)c2n[nH]c3ccccc23)cc1	inconclusive: 4.17%	–	–
Cc1nc2ccn(Cc3ccccc3)c(=O)c2cc1C(=O)N1CCN(c2ccccc2)CC1	inconclusive: 50.5%	–	–

# From PubChem BioAssay AID2685 (National Center for Advancing Translational Sciences (NCATS), 2010)
